Experimental data: PubChem BioAssay AID686937 (Drosophila RNAi Screening Center, 2013)

- Purpose: 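Genes whose loss weakens secretory pathway function in fly cells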 (primary screen)
- Cells: Drosophila S2 cells expressing secreted horseradish peroxidase
- Knock-down reagent: long dsRNA against Drosophila genes
- Time to read-out: about 5.5 days (5 days dsRNA, then 12 h reporter induction)
- Conditions: reporter expression induced after 5 days of dsRNA, read 12 h later; inducer not stated
- Detection: 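Chemiluminescent measurement of peroxidase in the medium 12 h after reporter induction, following 5 days of dsRNA, given as a z-score per plate; higher means more secretion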
- Reading the numbers: z-score: higher = more reporter secreted into medium
The screen tested about 23,000 reagents; below is a random part of those with a known target gene and a result. 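Reduced-secretion tags in replicate 1 do not always agree with the z-scores; no criterion for assigning the tags was given.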 The numbers tell different reagents against one gene apart. Names joined by + are all predicted targets of the reagent. Not all columns of the deposit are shown. No sequences are given here. Not given: the amount of reagent.

z-score, replicate 1, by gene and reagent
Crys: #1 -0.15
fon: #1 0.37
CG9826: #1 0.24
Miga: #1 0.36
ATP6 (retired record): #1 0.4
Cyp4aa1: #1 0.51
dnc: #1 0.11; #2 0.48; #3 0.51; #4 0.05; #5 -0.01
Smurf: #1 0.09
CG4098: #1 0.35
CG7634: #1 0.01
Mst57Da: #1 0.25
Veneno: #1 0.14
Ugt302C1: #1 0.15
Socs36E: #1 0.18
Acsf2: #1 0.43
CG13685: #1 0.25
Cds: #1 -0.1
Phae2: #1 0.17
CG13437: #1 0.47
Gapdh1: #1 -0.03
Nipsnap: #1 0.3
Fili: #1 -0.15; #2 0.11; #3 -0.24
CG18731: #1 0.23
Nubpl: #1 0.34
HemK1: #1 0.32
CG11151: #1 0.42
Cdc23: #1 -0.67
D19A: #1 -1.48
CG7888: #1 0.17
orb2 + CG43783: #1 0; #2 0.34; #3 0.11
Cht2: #1 0.24
CG2975: #1 0.22
CG3301: #1 0.37
CG5412: #1 0.42
crn: #1 -2.74; #2 -2.37; #3 -5.41
CR18228: #1 0.48
UbcE2M: #1 -0.08
Ucp4B + asRNA:CR43465: #1 0
lncRNA:CR30121: #1 0.03
Bacc: #1 0.25
CG17068: #1 0.21
l(1)G0020: #1 0.17
CG15369: #1 0.47

8 of these entries in another layout:
orb2 + CG43783 #3 → z-score, replicate 1 = 0.11
Cht2 → z-score, replicate 1 = 0.24
CG2975 → z-score, replicate 1 = 0.22
CG3301 → z-score, replicate 1 = 0.37
CG5412 → z-score, replicate 1 = 0.42
crn #1 → z-score, replicate 1 = -2.74
crn #2 → z-score, replicate 1 = -2.37
crn #3 → z-score, replicate 1 = -5.41

The list goes on:
z-score, replicate 1, by gene and reagent
CG9919: #1 0.4
tay: #1 0.28
CG11672: #1 -0.19
RpLP2: #1 -5.25
CG15395: #1 0.1
syd: #1 0.45
tant: #1 0.1
CG5026: #1 0.11
CG4546: #1 0.38
CG13325: #1 0.28
caz: #1 -0.88; #2 0.12
ppk27: #1 0.43; #2 -0.03
CG15517: #1 0.12
CG12783: #1 0.05
SLIRP2: #1 0.2
ZnT33D: #1 0.12
CG13894: #1 -1.81
moi + Tgs1: #1 -0.3
CG13058: #1 0.15
Prx6c: #1 0.11
Ssl: #1 -0.08
MED26: #1 -3.53; #2 -1.27; #3 -2.39
Wdr62: #1 0.33; #2 0.53; #3 -0.03; #4 0.41
